Results published in PMC7316826.
These are yes or no findings as the source states them, for the method shown. Binding seen in cells or lysates may run through a third protein. Some results given as binding are weak or reduced against the parent protein; the word gives no strength. One block for each molecule: values may come before it.

By UniProt entry, the sequences of proteins in these tests, tags left out. Residues count along the entry.
UniProt Q9QUK6, residues 26-835: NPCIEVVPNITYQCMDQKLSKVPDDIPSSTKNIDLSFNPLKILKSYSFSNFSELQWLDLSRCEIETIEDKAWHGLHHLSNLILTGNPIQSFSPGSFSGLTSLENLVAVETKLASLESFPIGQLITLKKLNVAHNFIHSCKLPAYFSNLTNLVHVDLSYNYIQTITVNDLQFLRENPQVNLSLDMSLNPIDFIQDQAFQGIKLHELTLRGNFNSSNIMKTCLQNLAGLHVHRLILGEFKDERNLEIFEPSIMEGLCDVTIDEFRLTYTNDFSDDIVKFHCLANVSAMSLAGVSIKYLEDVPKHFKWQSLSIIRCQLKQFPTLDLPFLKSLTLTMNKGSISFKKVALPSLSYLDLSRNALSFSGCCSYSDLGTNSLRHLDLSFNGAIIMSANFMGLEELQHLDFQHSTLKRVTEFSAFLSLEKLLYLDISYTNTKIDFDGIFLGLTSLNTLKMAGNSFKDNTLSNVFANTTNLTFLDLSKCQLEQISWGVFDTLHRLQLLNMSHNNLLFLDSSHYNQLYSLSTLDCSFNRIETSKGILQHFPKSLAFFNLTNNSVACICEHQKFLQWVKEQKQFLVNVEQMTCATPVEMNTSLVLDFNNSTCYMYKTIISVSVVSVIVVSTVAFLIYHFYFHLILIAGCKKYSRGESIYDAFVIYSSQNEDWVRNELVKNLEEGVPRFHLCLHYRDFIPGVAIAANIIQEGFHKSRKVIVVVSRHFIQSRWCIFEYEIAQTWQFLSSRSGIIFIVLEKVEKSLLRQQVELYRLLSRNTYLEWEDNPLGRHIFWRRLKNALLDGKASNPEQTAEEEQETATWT

Tests used:
[1] = target: T1, lysophosphatidylcholine acyltransferase 2 (LPCAT2) (mouse (endogenous in RAW264.7)) (UniProt Q8BYI6); experiment: co-IP; cells stimulated with LPS for 15 or 30 minutes; lysate pre-cleared with normal antibodies of the same species; IP with anti-TLR4 or anti-LPCAT2 antibody, immunoblot for the other protein
T1 sequence: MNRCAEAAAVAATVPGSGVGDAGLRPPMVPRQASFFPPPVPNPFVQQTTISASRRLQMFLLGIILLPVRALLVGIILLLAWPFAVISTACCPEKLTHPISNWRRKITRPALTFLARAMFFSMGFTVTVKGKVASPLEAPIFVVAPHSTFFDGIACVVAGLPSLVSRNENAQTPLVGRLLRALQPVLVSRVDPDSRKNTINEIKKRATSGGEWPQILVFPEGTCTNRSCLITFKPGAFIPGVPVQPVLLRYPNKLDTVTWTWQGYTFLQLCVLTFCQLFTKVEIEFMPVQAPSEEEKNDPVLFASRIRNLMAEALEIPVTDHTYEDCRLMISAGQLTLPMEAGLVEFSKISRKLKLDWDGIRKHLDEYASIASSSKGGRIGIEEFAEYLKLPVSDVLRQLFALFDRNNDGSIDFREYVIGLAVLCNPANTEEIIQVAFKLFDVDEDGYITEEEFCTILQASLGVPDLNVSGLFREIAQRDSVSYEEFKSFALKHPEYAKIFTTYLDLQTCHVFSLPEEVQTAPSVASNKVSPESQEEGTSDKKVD

[2] = target: TLR4 (mouse (endogenous in RAW264.7)) (UniProt Q9QUK6); experiment: as above
[3] = target: TLR4 (mouse (endogenous in RAW264.7)) (UniProt Q9QUK6); experiment: co-IP; unstimulated (resting) cells; lysate pre-cleared with normal antibodies of the same species; IP with anti-TLR4 or anti-LPCAT2 antibody, immunoblot for the other protein

binding [1]: binds
Molecule: TLR4 (from UniProt Q9QUK6 26-835) (receptor)

binding [2]: binds
binding [3]: binds weakly
B1: lysophosphatidylcholine acyltransferase 2 (LPCAT2) (enzyme, UniProt Q8BYI6-1 1-544)
chain: T1 sequence
